The whole screen tested about 320,000 compounds, of which about 2,100 (0.66%) were called active. This list was built around the results that the source calls inconclusive (neither active nor inactive); the mix of calls is not that of the screen. Calls follow the shape of the dose curve; as a rule, active = well fitted inhibition curve with a large enough effect in the signal ratio, with a control signal flat (not every such curve was filed as active); inconclusive = small, poorly fitted or top-dose-only effect, or effect the other way, or a change in a side signal; inactive = flat fitted curve, though single readings scatter; the % refers to the signal ratio. Where the call is inconclusive, the potency comes from a doubtful curve fit.
test: qHTS Assay for Lipid Storage Modulators in Drosophila S3 Cells; conditions: BODIPY lipid droplet fluorescence, 18-24 h, cells fed with added oleic acid; lipid storage change, negative = inhibition: at 46.1 µM (top of the series) unless noted
Outline: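 Drosophila S3 cells loaded with oleic acid (400 uM, as added) and compounds at several concentrations; lipid droplets imaged by 488-nm laser-scanning cytometry, 500–530 nm intensity and object ratio to cell channel. Percent activity normalized to 20 uM Triacsin C.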
% is scaled to controls: 0 for no effect and ±100 for the full control effect; potency is read from the fitted curve at half-maximal effect.

SMILES	lipid storage change, negative = inhibition	Potency
CCCCn1c(N)c(N(CCC(C)C)C(=O)c2ccc3c(c2)OCCO3)c(=O)[nH]c1=O	inconclusive: 59.6%	
Cc1ccc(S(=O)(=O)N2CCCCC2CCNC(=O)C(=O)NCCc2ccco2)cc1 (stereo not given)		inconclusive: 0.206 µM [falling, full curve, poor fit]
CN1CCN(C(=O)C2=C[C@H](c3ccc4c(c3)OCO4)C[C@H](OCc3ccc(CO)cc3)O2)CC1	inconclusive: 8.37%	
CCOc1ccc(N2CC(C(=O)Nc3ccccn3)CC2=O)cc1 (stereo not given)	inconclusive: 40.1%	
COc1ccc(CN2CCN(C(=O)c3ccc(S(=O)(=O)N4CCCCCC4)cc3)CC2)cc1	inconclusive: -60.8%	
C=COC(=O)CSc1nc(-c2cccs2)ccc1C#N	inconclusive: -9.41%	
O=C(C1CCN(S(=O)(=O)c2cnc[nH]2)CC1)N(CCc1ccccc1)Cc1ccccc1	inconclusive: -3.95%	
Cc1ccc(CC(=O)NC(C)CCc2ccccc2)cc1 (stereo not given)	inconclusive: -62.3%	
Cc1[nH]c2ccc(C(=O)NCc3ccccn3)cc2c1C	inconclusive: 0.482%	
O=C(c1ccccc1NS(=O)(=O)c1ccccc1)N1CCCCCC1		inconclusive: 29.1 µM [activator, single point]
O=C(Nc1ccccc1C(=O)O)c1ccc(NC(=O)C2CCCCC2)cc1	inconclusive: 24.4%	
CC(C)C[C@H](N)c1nnc(S(=O)(=O)Cc2cccc(F)c2)o1		inconclusive: 16.4 µM [cytotoxic, partial curve]
C=CCN1C(=O)C(CC(=O)O)SC1=Nc1ccc(C)cc1 (stereo not given)	inconclusive: 18.6%	
Cc1cccc([C@@H]2[C@@H]3C(=O)N(Cc4ccccc4)C(=O)[C@@H]3[C@]3(CC(C)C)C(=O)N(c4cccc(Br)c4)C(=O)N23)c1	inconclusive: -37.6%	
Cc1nc(CN2CCN(C(=O)NC3(c4ccccc4)CC3)CC2)cs1	inconclusive: -60.6%	
C#CCn1c2ccccc2c2nc3ccccc3nc21	inconclusive: 17.5%	
Cc1ccc(C)c(NC(=O)c2nnn(Cc3ccccc3C)c2N)c1		inconclusive: 6.51 µM [cytotoxic, single point]
NC(=O)COC(=O)CCSc1ccc(Cl)cc1	inconclusive: -21.5%	
CC1(C)N=C(/C=N/O)CN1O		active: 6.51 µM
Cc1cc(NC(=O)CSc2nc(-c3cccs3)nc3ccccc23)no1	inconclusive: -89.9%	
Cc1onc(-c2ccccc2)c1C(=O)OCC(=O)N(CC(C)C)c1c(N)n(Cc2ccccc2)c(=O)[nH]c1=O	inconclusive: 21.3%	
CC(C)=C1SC(N2CCOCC2)=NC1=O	inconclusive: 9.08%	
COc1cc(NC(=O)COC(C)=O)cc(OC)c1OC	inconclusive: -33.9%	
COc1ccc(OC)c(/C=C/C(=O)Nc2cccc(S(=O)(=O)N3CCCC3)c2)c1	inconclusive: -0.82%	
CC(C)(C)CN1CCC(Oc2cccc(C(=O)NCCCOc3cccnc3)c2)CC1	inconclusive: 26.9%	

SMILES	lipid storage change, negative = inhibition	Potency
CN(CCOc1ccccc1)C(=O)CCc1nc2sc3c(c2c(=O)[nH]1)CCCC3		inconclusive: 29.1 µM [activator, single point]
CN(C(=O)c1ccccc1Cl)c1ccccc1C(=O)NCc1ccccc1		inconclusive: 4.11 µM [falling, partial curve, poor fit]
CC1(C)CC(c2nc(-c3ccccc3)cs2)CCS1 (stereo not given)		inconclusive: 29.1 µM [falling, single point]
c1ccc(CSc2nc3ncncc3[nH]2)cc1	inconclusive: 12.2%	
COc1ccc2ccc(O)c(CN3CCN(S(=O)(=O)c4cc([N+](=O)[O-])ccc4C)CC3)c2c1	inconclusive: 24.2%	
Cc1cc(C)n(-c2ccc(C(=O)NC3CCCCC3)cc2)n1	inactive	
Cn1c(=O)c(C(=O)COC(=O)c2cc(-c3ccccc3)nc3ccccc23)c(N)n(Cc2ccccc2)c1=O		inconclusive: 1.3 µM [activator, full curve]
NS(=O)(=O)c1ccc(CNC(=O)c2ccc(S(=O)(=O)NCc3ccco3)cc2)cc1		inconclusive: 7.31 µM [activator, partial curve]
Cc1cc(NC(=O)C2CC(c3ccc(Cl)cc3)=NO2)no1 (stereo not given)	inconclusive: -24.8%	
CCCC1C(=O)N2C(N(C)C)=Nc3ccc(C)cc3N2C1=O (stereo not given)	inconclusive: 13.2%	
COC(=O)c1[nH]c2ccccc2c1CN1CCOCC1	inconclusive: 11.3%	
CC1CCOC2(O1)C(=O)N(CN1CCN(c3ccccc3F)CC1)c1ccccc12 (stereo not given)	inconclusive: 9.32%	
O=C(O)CC(SCC(=O)Nc1ccc(S(=O)(=O)N2CCCC2)cc1)C(=O)O (stereo not given)	inconclusive: -16.6%	
COc1cc(NC(=O)c2ccc(Br)cc2)c(OC)cc1NC(=O)c1ccccc1		active: 18.4 µM
Cc1cc(C=NCCO)c(C)n1-c1cc(Cl)ccc1Cl		inconclusive: 0.13 µM [falling, full curve, poor fit]
CCOC(=O)c1cnc2c(F)ccc(F)c2c1Sc1ccccc1	inconclusive: -24%	
CC(/C=C/c1ccccc1)=N/O	inconclusive: 24.3%	
O=C(Nc1cc2c(cc1Cl)OCCCO2)c1ccccc1		inconclusive: 16.4 µM [rising, partial curve]
COc1ccc(/C=C2/SC(=S)N(CCCC(=O)Nc3ccc(O)cc3)C2=O)cc1	inconclusive: -22.6%	
Cc1ccc(SCCCCN2CCOCC2)cc1	inconclusive: -1.8%	
O=C(c1ccc(Br)cc1)C1CCc2occc2C1=O (stereo not given)	inconclusive: 86.2%	
Cc1ccc(N2CCN(C(=O)C3CCCN(c4ncnc5c4nc4n5CCCCC4)C3)CC2)c(C)c1 (stereo not given)	inconclusive: 42.1%	
CCn1cc(C(=O)N2CCc3ccccc32)c(=O)c2cc(S(=O)(=O)N3CC(C)CC(C)C3)ccc21 (stereo not given)	inconclusive: 20.7%	
COc1cccc(NC(=O)CSCC(=O)O)c1		inconclusive: 29.1 µM [falling, single point]
Cc1ccc(C)c(OCCC(=O)Nc2cccc(S(=O)(=O)N3CCCCC3)c2)c1		active: 7.31 µM

Arranged by count of non-hydrogen atoms (ascending): 4 of the compounds above.
SMILES	lipid storage change, negative = inhibition	Potency
c1ccc(CSc2nc3ncncc3[nH]2)cc1	inconclusive: 12.2%	
Cc1ccc(C)c(NC(=O)c2nnn(Cc3ccccc3C)c2N)c1		inconclusive: 6.51 µM [cytotoxic, single point]
CN(CCOc1ccccc1)C(=O)CCc1nc2sc3c(c2c(=O)[nH]1)CCCC3		inconclusive: 29.1 µM [activator, single point]
CN1CCN(C(=O)C2=C[C@H](c3ccc4c(c3)OCO4)C[C@H](OCc3ccc(CO)cc3)O2)CC1	inconclusive: 8.37%	

From PubChem BioAssay AID2685 (National Center for Advancing Translational Sciences (NCATS), 2010)
